Data as given in PubChem BioAssay AID1159578 (Peter MacCallum Cancer Centre, 2015).

Purpose: 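Knock-downs that alter how fast lymphatic endothelial cells migrate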 (primary screen)
System: human lymphatic endothelial cells
Knock-down reagent: siRNA pool against human genes, 40 nM
Time to read-out: 48 h after transfection
Measured: 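Cells stained with dye and imaged after a scratch; covered wound area and nuclei counted, duplicates averaged, migration set against mock wells and turned into a robust z-score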
Direction: migration robust z-score: higher = faster migration into the scratch; nuclei per well: higher = more cells in the well
Call rule: 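Pools averaging fewer than 3300 nuclei are never called; remaining pools count as changed when migration robust z lies outside -2 to 2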
Calls: active = migration changed; inactive = no migration change, or too few cells
Here is one part, drawn at random, of about 18,000 deposited reagents. In the full data, about 1,030 (5.7%) were called active. 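Inactive calls also include pools with fewer than 3300 nuclei, whose migration was not assessed.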 The raw values are shown without normalisation. A number with no mark means an inactive call. Not all columns of the deposit are shown.

After knock-down of DZANK1, the screen gave migration robust z-score -0.98; migration class with cell-count check migration z between -2 and 2; enough cells; nuclei per well, duplicate mean 5292.
EPHA5 gave migration robust z-score 0.46; migration class with cell-count check migration z between -2 and 2; enough cells; nuclei per well, duplicate mean 7398.
Against PPM1L, the values are migration robust z-score -0.5; migration class with cell-count check migration z between -2 and 2; enough cells; nuclei per well, duplicate mean 6074.
After knock-down of MS4A1, the record shows migration robust z-score 0.12; migration class with cell-count check migration z between -2 and 2; enough cells; nuclei per well, duplicate mean 5496.
RHEX gave migration robust z-score -0.76; migration class with cell-count check migration z between -2 and 2; enough cells; nuclei per well, duplicate mean 5285.
PRDM6 gave migration robust z-score 1.53; migration class with cell-count check migration z between -2 and 2; enough cells; nuclei per well, duplicate mean 6227.
Knock-down of SLC22A11 resulted in: migration robust z-score -0.46; migration class with cell-count check migration z between -2 and 2; enough cells; nuclei per well, duplicate mean 4700.
With knock-down of PRCC, the screen gave migration robust z-score 0.25; migration class with cell-count check migration z between -2 and 2; enough cells; nuclei per well, duplicate mean 5872.
LPCAT3 scored migration robust z-score -1.86; migration class with cell-count check under 3300 nuclei; migration not judged; nuclei per well, duplicate mean 2745.
TECTA gave migration robust z-score -0.5; migration class with cell-count check migration z between -2 and 2; enough cells; nuclei per well, duplicate mean 7214.
After knock-down of HLF, the screen gave migration robust z-score -0.98; migration class with cell-count check migration z between -2 and 2; enough cells; nuclei per well, duplicate mean 4810.
Depletion of MLC1 gave: migration robust z-score -0.52; migration class with cell-count check migration z between -2 and 2; enough cells; nuclei per well, duplicate mean 5582.
With knock-down of DPH7, the screen gave migration robust z-score -1.81; migration class with cell-count check migration z between -2 and 2; enough cells; nuclei per well, duplicate mean 6034.
For SSX3 the deposit lists migration robust z-score 0; migration class with cell-count check migration z between -2 and 2; enough cells; nuclei per well, duplicate mean 5277.
With knock-down of RSPH4A, the record shows migration robust z-score 0.89; migration class with cell-count check migration z between -2 and 2; enough cells; nuclei per well, duplicate mean 5796.
With knock-down of BBS7, the screen gave migration robust z-score -2.58 (active); migration class with cell-count check migration z below -2; enough cells; nuclei per well, duplicate mean 4304.
FASTK showed migration robust z-score -1.01; migration class with cell-count check migration z between -2 and 2; enough cells; nuclei per well, duplicate mean 4650.
PLEKHA1 gave migration robust z-score 0.37; migration class with cell-count check migration z between -2 and 2; enough cells; nuclei per well, duplicate mean 6162.
Against ICAM4, the values are migration robust z-score -1.61; migration class with cell-count check migration z between -2 and 2; enough cells; nuclei per well, duplicate mean 4604.
TIGD1 gave migration robust z-score 1.35; migration class with cell-count check migration z between -2 and 2; enough cells; nuclei per well, duplicate mean 5153.
Silencing of ABCA2 resulted in: migration robust z-score -3.12 (active); migration class with cell-count check migration z below -2; enough cells; nuclei per well, duplicate mean 4668.
Silencing of AKR7A3 came out at: migration robust z-score 0.98; migration class with cell-count check migration z between -2 and 2; enough cells; nuclei per well, duplicate mean 5932.
Against EOGT, the entry reads migration robust z-score -0.66; migration class with cell-count check migration z between -2 and 2; enough cells; nuclei per well, duplicate mean 5181.
SBK1 showed migration robust z-score -0.88; migration class with cell-count check migration z between -2 and 2; enough cells; nuclei per well, duplicate mean 3652.
LYRM1 scored migration robust z-score 2.41 (active); migration class with cell-count check migration z above 2; enough cells; nuclei per well, duplicate mean 6186.
Silencing of NDUFA7 resulted in: migration robust z-score -2.57 (active); migration class with cell-count check migration z below -2; enough cells; nuclei per well, duplicate mean 5468.
CCRL2 showed migration robust z-score -0.62; migration class with cell-count check migration z between -2 and 2; enough cells; nuclei per well, duplicate mean 6324.

2 entries from above, set out differently:
gene | migration robust z-score | migration class with cell-count check | nuclei per well, duplicate mean
EOGT | -0.66 | migration z between -2 and 2; enough cells | 5181
SBK1 | -0.88 | migration z between -2 and 2; enough cells | 3652
